Results taken from publication PMC7862700.
The entries are a selection whose mix differs from that of the whole data set. At the low end of the ranking the order means little.

Target: T1, ELF3 (UniProt P78545)
T1 sequence: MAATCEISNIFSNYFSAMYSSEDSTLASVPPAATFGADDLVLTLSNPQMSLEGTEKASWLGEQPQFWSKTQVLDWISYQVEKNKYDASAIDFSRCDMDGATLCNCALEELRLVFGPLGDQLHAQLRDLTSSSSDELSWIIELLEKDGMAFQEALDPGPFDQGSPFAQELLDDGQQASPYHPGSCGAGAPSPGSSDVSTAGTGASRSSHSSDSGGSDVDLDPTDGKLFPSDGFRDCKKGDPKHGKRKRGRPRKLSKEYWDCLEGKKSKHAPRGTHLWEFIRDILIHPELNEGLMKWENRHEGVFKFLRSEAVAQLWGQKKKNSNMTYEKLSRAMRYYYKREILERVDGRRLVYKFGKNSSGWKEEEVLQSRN
Test: DAPPL (digital affinity profiling via proximity ligation, sequencing)
Details: 10 mM Tris-HCl pH 7.5, 50 mM NaCl, 1 mM DTT, 4% glycerol, room temperature, 30 min; GST-TFs on glutathione beads, 16-mer random dsDNA library, 0.1% …; high values mean tight binding; double strand, one strand shown; scale: fold enrichment (6-mer frequency, TF over GST control)

| Sequence | binding signal |
| --- | --- |
| CTCTAC | 1.47 |
| AGCTGT | 0.917 |
| CCACAG | 0.999 |
| GTGCTG | 0.651 |
| CTGGTG | 1.09 |
| GTGATG | 0.934 |
| TAAGGA | 0.963 |
| AGCTCG | 0.994 |
| TCGTAT | 1.05 |
| GCGCAC | 0.862 |
| CTGAGG | 0.779 |
| GCCTGA | 0.97 |
| TAGCGC | 0.944 |
| CGCAAT | 0.812 |
| GCAAAG | 0.95 |
| GCCGTC | 1.17 |
| GTAAGC | 0.939 |
| TCAGAC | 0.832 |
| TAAGTC | 0.936 |
| GTGGAT | 0.96 |

Pulled one by one from the list above, 2 records:

| Sequence | binding signal |
| --- | --- |
| GCGCAC | 0.862 |
| TAGCGC | 0.944 |

(further entries)

| Sequence | binding signal |
| --- | --- |
| GTTTCT | 1.2 |
| GGATCA | 0.796 |
| GTTTAG | 0.845 |
| TAAAGC | 1.06 |
| GGATCT | 0.932 |
| TTCGGG | 0.992 |
| GTTGCG | 0.981 |
| ATAGTG | 0.853 |
| GACCGA | 0.765 |
| CCCTGA | 0.964 |
| GCAGAA | 0.814 |
| GTTATC | 0.893 |
| ACCCGT | 0.835 |
| GATTAG | 0.833 |
| TCCGAG | 0.857 |
| CCAAGT | 0.973 |
| GATAAC | 0.958 |
| AGTTTG | 0.945 |
| GATGGA | 0.896 |
